In article PMC5623726:
These are yes or no findings as the source states them, for the method shown. Binding calls can cover weak binding; strength is not graded here.

Target: T1, AtBIN2 (brassinosteroid-insensitive 2) in pGBKT7 (pGBKT7-AtBIN2) (Arabidopsis thaliana) (UniProt Q39011)
T1 sequence: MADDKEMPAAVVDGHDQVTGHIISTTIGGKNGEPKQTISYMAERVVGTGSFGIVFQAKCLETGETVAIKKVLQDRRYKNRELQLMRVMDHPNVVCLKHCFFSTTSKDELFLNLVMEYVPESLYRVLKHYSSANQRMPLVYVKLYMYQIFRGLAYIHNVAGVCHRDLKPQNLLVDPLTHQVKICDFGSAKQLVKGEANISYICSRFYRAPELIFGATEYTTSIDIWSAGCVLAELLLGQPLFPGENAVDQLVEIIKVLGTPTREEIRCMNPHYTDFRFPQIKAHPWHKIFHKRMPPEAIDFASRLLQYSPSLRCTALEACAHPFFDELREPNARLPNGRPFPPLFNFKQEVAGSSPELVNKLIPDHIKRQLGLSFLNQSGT
Assay: two-hybrid; yeast strain AH109 co-transformed with pGBKT7 and pGADT7 fusions; growth on dropout medium lacking tryptophan, leucine, histidine and adenine with 3-AT (15 mM in results and legend, 5 mM in methods) and X-α-Gal (blue colour)

**Q.** With “SPLCV-JS C4 protein in pGADT7 (pGADT7-C4)” as the substance, how does the binding read?
**A.** binds
